These are literature values, as cited in patent publication US20230321008A1, “INHIBITORS OF ACID SPHINGOMYELINASE FOR PREVENTING AND TREATING THE COVID-19 DISEASE” (priority 2020, published 2023).

The series addresses T1, acid sphingomyelinase (ASM) (Homo sapiens, UniProt P17405).
T1 sequence (P17405 47-631): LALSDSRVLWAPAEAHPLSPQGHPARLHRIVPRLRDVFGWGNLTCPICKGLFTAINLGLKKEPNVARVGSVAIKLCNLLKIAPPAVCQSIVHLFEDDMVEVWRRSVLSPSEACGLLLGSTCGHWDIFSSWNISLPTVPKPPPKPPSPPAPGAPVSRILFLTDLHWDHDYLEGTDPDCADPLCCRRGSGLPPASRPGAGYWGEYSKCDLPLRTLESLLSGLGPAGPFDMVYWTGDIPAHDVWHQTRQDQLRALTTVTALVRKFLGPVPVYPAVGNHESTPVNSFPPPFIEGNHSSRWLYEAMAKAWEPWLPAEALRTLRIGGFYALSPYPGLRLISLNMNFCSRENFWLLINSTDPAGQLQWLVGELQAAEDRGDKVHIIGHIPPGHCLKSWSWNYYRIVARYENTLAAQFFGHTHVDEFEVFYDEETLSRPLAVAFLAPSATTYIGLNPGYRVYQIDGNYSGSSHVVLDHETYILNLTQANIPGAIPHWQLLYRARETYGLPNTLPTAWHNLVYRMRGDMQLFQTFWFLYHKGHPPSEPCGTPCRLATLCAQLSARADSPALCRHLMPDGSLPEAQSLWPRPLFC
The settings on record: cited from earlier work.

`CCCCc1oc2ccccc2c1C(=O)c1cc(I)c(OCCN(CC)CC)c(I)c1` [Amiodarone, amiodarone]: the “In vitro inhibition of acid sphingomyelinase (in words)” value is reported as “in vitro inhibit acid sphingomyelinase with varying degrees”.

With `CCOC(=O)N1CCC(=C2c3ccc(Cl)cc3CCc3cccnc32)CC1` [loratadine], the “In vitro inhibition of acid sphingomyelinase (in words)” value was “in vitro inhibit acid sphingomyelinase with varying degrees”.
